The target in the data set is T1, DNA topoisomerase I (Homo sapiens) (UniProt P11387).
T1 sequence (looked up, limits assumed): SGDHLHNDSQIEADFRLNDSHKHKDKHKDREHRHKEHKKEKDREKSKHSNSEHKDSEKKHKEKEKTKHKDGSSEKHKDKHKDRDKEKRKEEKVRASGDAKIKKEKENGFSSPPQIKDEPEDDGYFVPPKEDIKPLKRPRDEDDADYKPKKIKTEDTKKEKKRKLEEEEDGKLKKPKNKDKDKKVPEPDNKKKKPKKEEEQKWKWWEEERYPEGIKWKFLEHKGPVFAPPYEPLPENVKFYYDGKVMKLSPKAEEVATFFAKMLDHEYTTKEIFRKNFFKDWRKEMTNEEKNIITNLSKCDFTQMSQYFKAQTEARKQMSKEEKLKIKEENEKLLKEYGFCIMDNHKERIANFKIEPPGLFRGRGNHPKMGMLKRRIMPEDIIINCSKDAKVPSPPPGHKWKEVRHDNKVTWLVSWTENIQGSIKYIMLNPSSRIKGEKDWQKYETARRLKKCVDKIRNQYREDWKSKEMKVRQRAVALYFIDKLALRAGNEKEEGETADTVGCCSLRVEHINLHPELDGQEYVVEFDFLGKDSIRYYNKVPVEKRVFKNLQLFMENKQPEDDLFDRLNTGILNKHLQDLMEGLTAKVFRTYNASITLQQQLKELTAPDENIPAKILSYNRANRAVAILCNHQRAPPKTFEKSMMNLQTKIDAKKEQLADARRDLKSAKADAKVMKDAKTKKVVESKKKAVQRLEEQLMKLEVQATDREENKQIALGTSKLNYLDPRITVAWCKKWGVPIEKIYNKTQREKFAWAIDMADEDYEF
The data set is described as follows: enzyme reaction in vitro. As to conditions: purified recombinant protein, protein details: Invitrogen, 10 units per reaction.

From patent US20080108581A1, “Compounds and Their Use for Specific and Simultaneous Inhibition of Genes Involved In Diseases and Related Drugs” (INSTITUT NATIONAL DE LA SANTE ET DE LA RECHERCHE MEDICAL …, priority 2003, published 2008) come the findings set out here.

For at least one entry, the source does not settle the construct or the ends of the probe. Where a protein sequence is shown, tags need not be part of it.

As to “GAAGAGGGAGAGAGAGAGAAGG / TCTTCTCCCTCTCTCTCTCTTCC [IGF-1 promoter 1 target]”, the “activity on this sequence” value (conjugate-directed cleavage extended to this target, flanks not stated) is given as “active”.
Regarding “GAATTCAAGCTTACACTCCCTATCAGTGATAGAGAGAGAGAAAAAAGAGAAGATCTGAGCTCGGTACCCTAGGATC / CTTAAGTTCGAATGTGAGGGATAGTCACTATCTCTCTCTCTTTTTTTCTCTTCTAGACTCGAGCCATGGGATCCTAG”, the “activity on this sequence” value (TFO16-camptothecin conjugates: cleavage only at site b 3' of triplex, free camptothecins cleave at sites a-i, 10 mM MgCl2, 60 mM KCl, pH 7.5, 30 C, label: 32P 3' end) is recorded as “active”.
